Measured values: paper PMC12311110
No constants are given. Whether binding was seen depends on the method and setting. Binding seen in cells or lysates may run through a third protein. Some entries that bind do so weakly or less than the wild type. Where a sequence is shown, tags or fusion partners need not be part of it.

Target: T1, GFP-TBC1D1 (UniProt Q86TI0)
T1 sequence: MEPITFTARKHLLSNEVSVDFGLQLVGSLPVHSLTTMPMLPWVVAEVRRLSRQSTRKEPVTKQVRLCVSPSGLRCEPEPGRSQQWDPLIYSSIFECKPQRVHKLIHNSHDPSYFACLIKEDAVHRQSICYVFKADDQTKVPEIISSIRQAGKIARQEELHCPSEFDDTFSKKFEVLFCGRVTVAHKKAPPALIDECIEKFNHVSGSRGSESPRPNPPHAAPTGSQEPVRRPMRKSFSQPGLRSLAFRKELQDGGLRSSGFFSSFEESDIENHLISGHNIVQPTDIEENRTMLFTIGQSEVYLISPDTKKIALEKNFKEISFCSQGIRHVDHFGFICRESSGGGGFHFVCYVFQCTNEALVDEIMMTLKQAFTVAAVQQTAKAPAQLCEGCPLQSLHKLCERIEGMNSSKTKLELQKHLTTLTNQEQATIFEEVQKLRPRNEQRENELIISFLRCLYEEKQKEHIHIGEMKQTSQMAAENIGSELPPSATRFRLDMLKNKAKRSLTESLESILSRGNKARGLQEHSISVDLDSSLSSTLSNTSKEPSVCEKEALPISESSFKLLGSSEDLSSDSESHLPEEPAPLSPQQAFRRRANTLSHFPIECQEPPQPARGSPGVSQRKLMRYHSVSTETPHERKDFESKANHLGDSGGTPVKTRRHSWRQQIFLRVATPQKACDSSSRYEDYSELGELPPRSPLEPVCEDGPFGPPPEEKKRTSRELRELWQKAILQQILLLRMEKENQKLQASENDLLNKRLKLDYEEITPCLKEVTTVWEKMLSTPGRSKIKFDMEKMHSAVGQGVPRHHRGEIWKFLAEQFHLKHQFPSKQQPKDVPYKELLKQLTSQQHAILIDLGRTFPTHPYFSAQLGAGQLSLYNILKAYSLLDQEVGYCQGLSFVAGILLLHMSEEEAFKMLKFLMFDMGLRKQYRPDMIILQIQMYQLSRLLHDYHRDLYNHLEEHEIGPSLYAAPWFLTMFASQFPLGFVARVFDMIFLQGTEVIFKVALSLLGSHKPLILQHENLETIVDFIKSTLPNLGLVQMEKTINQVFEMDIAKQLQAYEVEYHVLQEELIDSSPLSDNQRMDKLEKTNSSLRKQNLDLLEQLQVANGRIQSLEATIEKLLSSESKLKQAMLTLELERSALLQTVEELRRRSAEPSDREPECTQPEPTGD
Assay: co-IP; GFP-trap beads, lysate of transiently transfected HEK293T; IP buffer 50 mM Tris-HCl, 0.5% NP-40; 1 h at 4 °C; western blot; GFP-TBC1D1 alone or co-expressed with mCherry-TBC1D4

B1: mCherry-TBC1D4 (protein, UniProt O60343 1-1298)
chain: MEPPSCIQDEPFPHPLEPEPGVSAQPGPGKPSDKRFRLWYVGGSCLDHRTTLPMLPWLMAEIRRRSQKPEAGGCGAPAAREVILVLSAPFLRCVPAPGAGASGGTSPSATQPNPAVFIFEHKAQHISRFIHNSHDLTYFAYLIKAQPDDPESQMACHVFRATDPSQVPDVISSIRQLSKAAMKEDAKPSKDNEDAFYNSQKFEVLYCGKVTVTHKKAPSSLIDDCMEKFSLHEQQRLKIQGEQRGPDPGEDLADLEVVVPGSPGDCLPEEADGTDTHLGLPAGASQPALTSSRVCFPERILEDSGFDEQQEFRSRCSSVTGVQRRVHEGSQKSQPRRRHASAPSHVQPSDSEKNRTMLFQVGRFEINLISPDTKSVVLEKNFKDISSCSQGIKHVDHFGFICRESPEPGLSQYICYVFQCASESLVDEVMLTLKQAFSTAAALQSAKTQIKLCEACPMHSLHKLCERIEGLYPPRAKLVIQRHLSSLTDNEQADIFERVQKMKPVSDQEENELVILHLRQLCEAKQKTHVHIGEGPSTISNSTIPENATSSGRFKLDILKNKAKRSLTSSLENIFSRGANRMRGRLGSVDSFERSNSLASEKDYSPGDSPPGTPPASPPSSAWQTFPEEDSDSPQFRRRAHTFSHPPSSTKRKLNLQDGRAQGVRSPLLRQSSSEQCSNLSSVRRMYKESNSSSSLPSLHTSFSAPSFTAPSFLKSFYQNSGRLSPQYENEIRQDTASESSDGEGRKRTSSTCSNESLSVGGTSVTPRRISWRQRIFLRVASPMNKSPSAMQQQDGLDRNELLPLSPLSPTMEEEPLVVFLSGEDDPEKIEERKKSKELRSLWRKAIHQQILLLRMEKENQKLEASRDELQSRKVKLDYEEVGACQKEVLITWDKKLLNCRAKIRCDMEDIHTLLKEGVPKSRRGEIWQFLALQYRLRHRLPNKQQPPDISYKELLKQLTAQQHAILVDLGRTFPTHPYFSVQLGPGQLSLFNLLKAYSLLDKEVGYCQGISFVAGVLLLHMSEEQAFEMLKFLMYDLGFRKQYRPDMMSLQIQMYQLSRLLHDYHRDLYNHLEENEISPSLYAAPWFLTLFASQFSLGFVARVFDIIFLQGTEVIFKVALSLLSSQETLIMECESFENIVEFLKNTLPDMNTSEMEKIITQVFEMDISKQLHAYEVEYHVLQDELQESSYSCEDSETLEKLERANSQLKRQNMDLLEKLQVAHTKIQALESNLENLLTRETKMKSLIRTLEQEKMAYQKTVEQLRKLLPADALVNCDLLLRDLNCNPNNKAKIGNKP
- binding: binds
